By UniProt entry, the sequences of proteins in these tests, tags left out. Where a name states a change or a piece, a line headed by the entry shows the natural chain unless it says otherwise.
UniProt Q86G50: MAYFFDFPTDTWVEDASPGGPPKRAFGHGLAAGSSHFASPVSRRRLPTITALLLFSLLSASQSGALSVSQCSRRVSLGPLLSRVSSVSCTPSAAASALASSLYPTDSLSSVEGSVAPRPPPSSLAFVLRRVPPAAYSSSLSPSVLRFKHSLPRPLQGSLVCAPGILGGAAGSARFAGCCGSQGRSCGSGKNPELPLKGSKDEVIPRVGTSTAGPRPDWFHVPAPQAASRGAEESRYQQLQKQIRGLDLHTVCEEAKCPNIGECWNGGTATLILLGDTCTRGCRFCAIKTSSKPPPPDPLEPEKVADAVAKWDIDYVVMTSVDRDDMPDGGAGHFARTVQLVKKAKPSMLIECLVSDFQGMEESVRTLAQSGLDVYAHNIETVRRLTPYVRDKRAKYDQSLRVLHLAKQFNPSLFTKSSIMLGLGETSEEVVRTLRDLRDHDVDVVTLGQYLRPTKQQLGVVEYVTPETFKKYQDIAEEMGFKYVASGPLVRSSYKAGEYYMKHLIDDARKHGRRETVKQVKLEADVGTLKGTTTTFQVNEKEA
UniProt S8GG49: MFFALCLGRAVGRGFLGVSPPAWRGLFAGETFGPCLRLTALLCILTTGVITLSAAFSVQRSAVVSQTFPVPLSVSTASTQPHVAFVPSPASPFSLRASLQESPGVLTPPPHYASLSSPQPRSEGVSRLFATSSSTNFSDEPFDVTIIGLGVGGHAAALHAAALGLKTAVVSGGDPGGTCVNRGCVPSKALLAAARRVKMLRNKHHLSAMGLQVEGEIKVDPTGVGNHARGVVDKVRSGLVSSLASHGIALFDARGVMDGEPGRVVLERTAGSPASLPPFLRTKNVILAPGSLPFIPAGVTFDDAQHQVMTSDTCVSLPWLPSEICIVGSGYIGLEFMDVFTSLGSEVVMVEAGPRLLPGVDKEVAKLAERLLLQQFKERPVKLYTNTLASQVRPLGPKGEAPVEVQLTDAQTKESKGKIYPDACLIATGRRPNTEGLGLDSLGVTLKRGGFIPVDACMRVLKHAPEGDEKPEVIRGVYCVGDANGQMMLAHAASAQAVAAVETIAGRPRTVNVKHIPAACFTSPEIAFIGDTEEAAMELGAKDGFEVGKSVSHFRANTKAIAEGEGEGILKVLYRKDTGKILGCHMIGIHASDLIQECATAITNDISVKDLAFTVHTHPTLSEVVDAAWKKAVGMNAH
UniProt A0A125YZK4: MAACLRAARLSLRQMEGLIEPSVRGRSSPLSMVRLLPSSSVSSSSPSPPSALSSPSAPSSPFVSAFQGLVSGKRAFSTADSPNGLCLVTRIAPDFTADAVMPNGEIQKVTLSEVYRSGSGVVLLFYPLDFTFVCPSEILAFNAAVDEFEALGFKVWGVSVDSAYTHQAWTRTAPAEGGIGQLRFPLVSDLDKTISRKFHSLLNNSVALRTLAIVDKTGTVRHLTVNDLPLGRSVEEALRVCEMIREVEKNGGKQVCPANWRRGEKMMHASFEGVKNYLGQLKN
UniProt A0A125YVC1: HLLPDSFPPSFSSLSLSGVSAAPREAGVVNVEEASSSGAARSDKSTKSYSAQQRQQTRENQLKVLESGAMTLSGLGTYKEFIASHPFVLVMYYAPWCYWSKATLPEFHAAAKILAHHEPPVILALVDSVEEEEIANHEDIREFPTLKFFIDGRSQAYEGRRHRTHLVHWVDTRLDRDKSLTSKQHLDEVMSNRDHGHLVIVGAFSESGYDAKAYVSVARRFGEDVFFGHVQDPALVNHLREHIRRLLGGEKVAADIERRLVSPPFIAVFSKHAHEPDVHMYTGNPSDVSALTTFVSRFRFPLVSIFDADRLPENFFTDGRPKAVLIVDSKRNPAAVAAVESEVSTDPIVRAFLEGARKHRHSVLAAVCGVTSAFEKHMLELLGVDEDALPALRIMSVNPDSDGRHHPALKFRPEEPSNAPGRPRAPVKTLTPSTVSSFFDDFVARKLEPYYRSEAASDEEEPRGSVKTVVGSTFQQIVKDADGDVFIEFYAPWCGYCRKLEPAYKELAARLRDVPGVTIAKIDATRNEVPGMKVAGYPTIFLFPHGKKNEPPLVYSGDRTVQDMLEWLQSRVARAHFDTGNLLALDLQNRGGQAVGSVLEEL

According to article PMC11389393:

B1: TgPOFUT2 (protein, UniProt S7WCF5 1-858)
chain: MHCQLGGQARALIFLMFESCRNSWHVSPWSSVPFLPSPCLFFSFSALPFLHPLSQLIACRGSSATWLFPVSSGTLVLRYALAASPPRGTMRPSTNPRTAEEGRPWLIHATQTGPQTASVLSLFPAVNAGFFSACRQHRGGRPPCLLNHRRLLLGLVSVLTVFLSCLPFTNATVSPAALQDVCYAFGNISRKLSSFLVPSRVTCPRGATPLSGVEAQDSLEHPEIPDFRFLVYDVKNGEGFHLQKEVIYRVALVISLLNARSAQQGRMTDVHTAEKAREDRGHPQASHMLCASSSFSHACSARSTFPFFPMWVLVLPPWCRLAHWHFSEETITAMAENSWLKHVRWGTFFDFQDLGERLPVMEYEDFLTYQLMRPDPWGERRQRKEKQTTPVELDVVLSVRFSSTPSSRSLPFCACLSSRASEIADEQAQRDDVCCNVNDLPGCPQIHAALTPQERQRAPAQRGGDPREEIDEQTGEFNEGHNPSGDGEREKRKPGRRSDTSRSRKEIQEEAKVSDTWSGVSLWLAGFCETVRALEMWCASLYIADAPRIADLLWRSVAERPPGAIQTVWLKFGENLLVPWPDVLLDAHLLDMLHVHPKLRQIGDLFINKFLSNRDKTETGKGERASTEGGTEGDENLAKHGYIAAHLRRTDFLYLKRSVPLQRAAAYLVSRMKEHGVFKAFICTDGSEDEKRELRDAVRRVGDAASSSPYTVVFFDLPTVRRLMIKTLEASSHVSDDGSFHDLKAVETPGYSGPNHISLLLHPGITALIEVWIAARAAYFIGTKDSRFSQAIRWERHLMGHPLDSSLEVFCVDSSPDQTGGQAQGKCFATKSHDPPEGRSRSELRRKYWPSLDPSSTL

The molecules below were run against PDI8-3FLAG (TgPDI8 with a 3xFLAG tag followed by the GEEL sequence) (Toxoplasma gondii) (assay: affinity purification with mass spectrometry; PDI8-3FLAG parasite lysate (50 mM Tris pH 7.4, 150 mM NaCl, 1% NP-40), mouse anti-FLAG antibodies overnight at 4°C, protein A/G magnetic beads, LC-MS/MS).

Molecule | binding
LiPA (from UniProt Q86G50) | binds
PDH-E3I (from UniProt S8GG49) | binds
Prx3 (from UniProt A0A125YZK4 1-283) | binds
Trx (from UniProt A0A125YVC1) | binds
B1 | binds

These are yes or no findings as the source states them, for the method shown. Binding seen in cells or lysates may run through a third protein. Here binding means that the protein was enriched with, or labelled near, the bait; the list need not be complete.
